Measurements reported in PubChem BioAssay AID602196 (INSERM, 2012).

Purpose: 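Modifiers of cisplatin sensitivity in A549 cells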
Cell system: human A549 lung cancer cells
Reagent: siRNA pair against human genes
Time to read-out: 48 h transfection before cisplatin; time from cisplatin to read-out not stated
Treatment: cisplatin at a dose killing half of control-siRNA cells; exact dose and duration not given
Measurement: 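Shift in cisplatin death relative to control siRNA, from -50 (all cells die) to +50 (no cells die); siRNAs harmful on their own scored 0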
Direction: two-siRNA summed score (-2 to +2): higher = both siRNAs protect from cisplatin killing; -2 means both sensitise; mean protection from cisplatin (shift in death) and protection from cisplatin (shift in death), siRNA C and protection from cisplatin (shift in death), siRNA D: higher = protection from cisplatin killing
Rule for the call: 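siRNAs harmful alone (LDH or WST-1) get 0; others get +1 for less and -1 for more cisplatin killing; genes are active when the two siRNAs give the same sign, summing to ±2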
Calls: active = both siRNAs shift cisplatin killing the same way; inactive = no consistent shift, or siRNA harmful alone
Here is a random part of about 23,000 reagents. Of all reagents, 455 (2%) are marked active. 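Active includes both protection and sensitisation; some change values fall well beyond the stated -50 to +50 range.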 Entries without a mark were called inactive. Not stated in the record: the amount of reagent.

no.	gene	two-siRNA summed score (-2 to +2)	mean protection from cisplatin (shift in death) (%)	protection from cisplatin (shift in death), siRNA C (%)	protection from cisplatin (shift in death), siRNA D (%)
1	CCNL1	0	11.9	15.5	8.3
2	LINGO4	0	1.3	15.5	-12.9
3	LOC285188	0	11.2	7.4	15
4	CLEC18A	1	9.9	14.7	5.2
5	ACTR1A	1	19.4	19.4	19.4
6	ZBED5	0	0.2	2.9	-2.5
7	DDHD1	0	5.9	5.9	5.8
8	SPINT2	1	12.2	-1.8	26.1
9	RBM45	0	-4.6	-4.5	-4.6
10	TYW2	0	2.6	0.3	5
11	MMP11	-1	-20.5	-35.7	-5.3
12	ASB5	0	-3.2	0.6	-6.9
13	HES6	-1	-2.2	-18.8	14.4
14	OR4D9	0	-6.7	-6.9	-6.5
15	LOC442580	0	15.2	7.2	23.1
16	MIEF2	0	5.3	14.1	-3.5
17	TDRD7	0	6.4	7.7	5.2
18	CCND2	0	5.1	6	4.2
19	LOC401605	0	7.4	5	9.9
20	LOC441941	0	18.7	24.6	12.8
21	KLK2	0	10.6	17.1	4
22	LOC94431	0	5.9	11.6	0.2
23	FAM230J	0	-0.7	-1.1	-0.2
24	CEP97	1	-2.1	-16.7	12.5
25	LOC402579	0	15.4	10.7	20.1
26	TRAPPC6B	0	3.8	8.2	-0.6
27	LINC02911	0	-2.4	-10.8	6.1
28	ARHGAP25	0	11.1	6	16.2
29	IGFBP3	0	-1	-14.3	12.3
30	BIN1	1	14.7	13.2	16.3
31	NRXN1	0	-14.7	-5.7	-23.7
32	IK	0	-23	-30.2	-15.7
33	CAMK4	2 (active)	17.3	22.1	12.4
34	HIPK1	0	-7.9	-3.5	-12.3
35	DRC1	0	-4.2	-0.9	-7.5
36	LOC339077	0	10.2	5.7	14.7
37	NIN	0	9.5	-2	21.1
38	PKLR	0	-4.3	-9.1	0.5
39	ZNF16	1	6.4	6.6	6.2
40	HAUS4	0	5.1	9.8	0.3
41	OR5L1	0	-5.5	-7.6	-3.3
42	RSF1	0	-39.1	-46.1	-32.2
43	MARCO	0	7.9	3.1	12.8
44	LINC02111	0	10.9	11.4	10.4
45	TGFBRAP1	0	0.1	-10.1	10.4
46	GOLGA2P11	0	0.1	-11.3	11.5
47	PSMA3	0	7.3	5.7	8.9
48	SLC19A4P	1	3.3	13.4	-6.8
49	OR6A2	0	1.6	-10.8	14.1
50	LOC388595	0	-7.6	-7.7	-7.6
51	USP7P1	0	10.3	11.8	8.9
52	LOC340499	0	8	5.1	11
53	IDNK	0	3.7	1.2	6.2
54	LOC441382	0	17.8	8.1	27.5
55	C19orf47	1	6.9	9.9	3.9
56	COX15	0	10.3	14.6	5.9
57	SRSF10	1	14.6	9.3	19.8
